Assay results: patent US10967029B2, “Method of using Cistanche tubulosa extract to prevent, slow down, or treat an eye disease caused by oxidative stress” (Sinphar Pharmaceutical Co., Ltd., priority 2014, dated 2021)
Like-named read-outs stand apart in the source and are kept apart here. Some of these results come from one statement about several compounds together.

Assays:
[1] = system: RPE cells; test: Protective effect to NaN3-induced cytotoxicity (MTT assay); conditions: 10 mM NaN3, increased from 50%; concentration not given
Method: (§1) The cell culturing comprises the following steps. • 1. RPE cell clones were taken out from anti-frozen tubes in liquid nitrogen and quickly moved to a sterile hood after thawed in 37° C. water bath for 1 minute. RPE cell clones were taken out and placed in 10 cm dishes having 10 mL DMEM (Dulbecco's Modified Eagle Medium) therein. 10% inactivated fetal bovine serum (FBS), 2 mM L-glutamine, 100 U/mL penicillin, and 100 µg/mL streptomycin were added into the DMEM. • 2. The dishes were placed in a 37° C. incubator and cultured in conditions of a mixture gas of 95% air and 5% CO2, as well as 70% humidity. The old mediums were replaced by fresh mediums every 3 days. Serum-free DMEM was used instead of the mediums before performing experiments. • 3. When cells proliferated to nearly saturation, the numbers of cells were counted by a cell counter. […] Since RPE cells are attachment type cells, the medium containing the cells was transferred into 15 mL centrifugation tubes and then centrifuged at 72 g for 5 mines at room temperature when the medium was replaced. […]
(§2) Before experiment, the medium was replaced by serum-free medium. Fixed quantity of RPE cells (2×10^5 cells/mL) were respectively placed in 96 wells of a plate. […] After completely dissolving the residual cells, the enzyme immunoassay analyzer was used to detect the absorbance of each well. […]

[2] = system: RPE cells; conditions: 0.3 mM t-BHP (viability about 20% without treatment); low and medium concentrations
Method: as §1, §2

Molecule	cell viability [1]	cell viability [2]
C[C@@H]1O[C@@H](O[C@@H]2[C@@H](O)[C@H](OCCc3ccc(O)c(O)c3)O[C@H](CO)[C@H]2OC(=O)/C=C/c2ccc(O)c(O)c2)[C@H](O)[C@H](O)[C@H]1O [Embodiment 3, Acteoside]	above 80%	–
echinacoside [Embodiment 2]	above 80%	above 80%
